These are yes or no findings as the source states them, for the method shown. In cells and extracts the contact can be indirect. These calls come from enrichment with a bait or labelling near it, and not all partners need be listed.
B1: TAB1 (protein, UniProt Q8CF89 1-502)
chain: MAAQRRSLLQSEQQPSWTDDLPLCHLSGVGSASNRSYSADGKGTESHPPEDNWLKFRSENNCFLYGVFNGYDGNRVTNFVAQRLSAELLLGQLNTEHTEADVRRVLLQAFDVVERSFLESIDDALAEKASLQSQLPEGVPQHQLPPQYQKILERLKALEREISGGAMAVVAVLLNSKLYVANVGTNRALLCKSTVDGLQVTQLNMDHTTENEDELFRLSQLGLDAGKIKQMGVICGQESTRRIGDYKVKYGYTDIDLLSAAKSKPIIAEPEIHGAQPLDGVTGFLVLMSEGLYKALEAAHGPGQANQEIAAMIDTEFAKQTSLDAVAQAVVDRVKRIHSDTFASGGERAKFCPRHEDMTLLVRNFGYPLGEMSQPTPTPAPGGRVYPVSVPYSSAQSTSKTSVTLSLVMPSQGQMVNGSHSASTLDEATPTLTNQSPTLTLQSTNTHTQSSSSSSDGGLFRSRPAHSLPPGEDGRVEPYVDFAEFYRLWSVDHGEQSVMTAP
B2: TAB2 (protein, UniProt Q99K90 1-693)
chain: MAQGSHQIDFQVLHDLRQKFPEVPEVVVSRCMLQNNNNLDACCAVLSQESTRYLYGEGDLNFSDESGISGLRNHMTSLNLDLQSQNVYHHGREGSRVNGSRTLTHSVSDGQLHGGQSNNELFQQEPQTAPAQVPQGFNVFGMPSTSGASNSTPHLGFHLGSKGTSNLSQQTPRFNPIMVTLAPNIQTGRSTPTSLHIHGVPPPVLNSPQGNSIYIRPYITTPSGTARQTQQHSGWVSQFNPMNPQQAYQPSQPGPWTTYPASNPLPHTSTQQPNQQGHQTSHVYMPISSPTTPQPPTIHSSGSSQSSAHSQYNIQNISTGPRKNQIEIKLEPPQRNSSSKLRSSGPRTASTSSLVNSQTLNRNQPTVYIAASPPNTDEMISRSQPKVYISANATAGDEQGMRNQPTLFISTNSGPSAASRNMSGQVSMGPAFIHHHPPKSRVLGGNSATSPRVVVTQPNTKYTFKITVSPNKPPAVSPGVVSPTFELTNLLNHPDHYVETENIQHLTDPALAHVDRISEARKLSMGSDDAAYTQALLVHQKARMERLQRELEMQKKKLDKLKSEVNEMENNLTRRRLKRSNSISQIPSLEEMQQLRSCNRQLQIDIDCLTKEIDLFQARGPHFNPSAIHNFYDNIGFVGPVPPKPKDQRSTIKAPKTQDAEDEEGAQWNCTACTFLNHPALIRCEQCEMPRHF
B3: TAB3 (protein, UniProt Q571K4 1-716)
chain: MAQNSPQLDIQVLHDLRQRFPEIPEGVVSQCMLQNNNNLEACCRALSQESSKYLYMEYHSPEDNRMNRNRLLHINLGIHSPSSYHPGDGAHLNGGRTLVHSSSDGHIDPQHTAGKQLICLVQEPHSAPAVVAATPNYNPFFMNEQNRSAATPPSQPPQQPSSMQTGMNPSAMQGPSPPPPPPSYMHIPRYSTNPITVTVSQNLPSGQTVPRALQILPQIPSNLYGSPGSIFIRQTSQSSSGRQTPQNAPWQSSPQGPVPHYSQRPLPVYPHQQNYQPSQYSPKQQQIPQSVYHSPPPSQCPSPFSSPQHQVQPPQLGHPSSHVFMPPSPSTTPPHLYQQGPPSYQKPGSHSVAYLPYTASSLPKGSMKKIEITVEPSQRPGTAITRSPSPISNQPSPRNQHSLYTATTPPSSSPSRGISSQPKPPFSVNPVYITYTQPTGPSCAPSPSPRVIPNPTTVFKITVGRATTENLLNLVDQEERSAAPEPIQPISVIPGSGGEKGNHKYQRSSSSGSDDYAYTQALLLHQRARMERLAKQLKLEKEELERLKAEVNSMEHDLMQRRLRRVSCTTAIPTPEEMTRLRSTNRQLQINVDCTLKEVDLLQSRGNFDPKAINNFYDHIEPGPVVPPKPSKKDSSDSCAIERKARRISVTSKAPVDIHDAQAAAADEHLSICKQSARTQPRDEDYEGAPWNCDSCTFLNHPALNRCEQCEMPRYT
B4: NF2 (protein, UniProt P46662 1-596)
chain: MAGAIASRMSFSSLKRKQPKTFTVRIVTMDAEMEFNCEMKWKGKDLFDLVCRTLGLRETWFFGLQYTIKDTVAWLKMDKKVLDHDVSKEEPVTFHFLAKFYPENAEEELVQEITQHLFFLQVKKQILDEKVYCPPEASVLLASYAVQAKYGDYDPSVHKRGFLAQEELLPKRVINLYQMTPEMWEERITAWYAEHRGRARDEAEMEYLKIAQDLEMYGVNYFTIRNKKGTELLLGVDALGLHIYDPENRLTPKISFPWNEIRNISYSDKEFTIKPLDKKIDVFKFNSSKLRVNKLILQLCIGNHDLFMRRRKADSLEVQQMKAQAREEKARKQMERQRLAREKQMREEAERTRDELERRLLQMKEEATMANEALMRSEETADLLAEKAQITEEEAKLLAQKAAEAEQEMQRIKATAIRTEEEKRLMEQKVLEAEVLALKMAEESERRAKEADQLKQDLQEAREAERRAKQKLLEIATKPTYPPMNPIPPPLPPDIPSFDIIADSLSFDFKDTDMKRLSMEIEKEKVEYMEKSKHLQEQLNELKTEIEALKLKERETALDVLHSESSDRGGPSSKHNTIKKLTLQSAKSRVAFFEEL
B5: RPS6KC1 (protein, UniProt Q8BLK9 1-1056)
chain: MTSPWGHSADLARFYTVTEPQRHPRGYTVYKVTARVVSRRNPEDVQEIIVWRRYSDFKKLHRELWQIHRNAFRHSELFPPFAKGTVFGRFDKTVIEERRQCAEDLLQFSANIPALYNSRQLQDFFKGGVISDGSELIGPAEAYPDSPANAFPECGTEGFSSDSDLLSLTVDADSLAEVDDGMASRQGSPSRTFGLSLSTDSSAVGAVASDSEPSRVEDRESRSLFPSSLKPRLGRRDYLEKAGELIKLALKKEEEDDYEAASDFYRKGVDLLLEGVQGESSPTRREAVKRRTAEYLMRAESICSLRAAPQLHTGPQPPGSLSSRPPWSLRSPAEELKAFRVLGVIDKVLLVMDTRTEQTFILKGLRKSSECSRNRKTIIPRCVPNMVCLHTYIISEESVFLVLQRAEGGKLWSYISKFLNRSSQESLDIKEGRPSMPPRVCLQQPSASPQGGSSFESRGSDTGSMLKALPLKTSLTPSSQDDSNQEDDGQPSSPKWLDSGSSSEDECTAGYLTLCNEYGQEKMDLVSLSEESVMQPEGDKADTQAVSSPASLATGSVSPSTHLRVFSGGEDLEAVSSPPTSESLSRSKNSPMEFFRIDSKDSTSELLGLDFGEKLHSLKPEPLKALFTLEDGDSPSQSLDPGESKRESEAQDSVSRGSDDSVPVISFKEAAAEAISGAEEGRPDLLVNLPGELQPTKEASAMDPKFSQASAGRLDSKLLEAPDVLCLRLSSEQCHGLGPEGPEELSDPTEFCPGGVIPEHDAQADPGVLFEAAVDHRSSPDQFLFSSLRSESDRLGQVEVVVTAQALQESLFHISSPCSGANKEHSAYADTATSEEVLLFTEPTKEEANSLFQRGSEAQERGVGAGEADKEIHQIFEDLDKRLAASSRFFIPEGCIQRWAAEMVVALDALHREGIVCRDLNPNNILLNDGGHIQLTYFSRWSEVEDSCDSDAVARMYCAPEVGAVTEETEACDWWSLGAVLFELLTGKTLVECHPAGINTHTTLNMPGCVSEEARSLIQQLLQFNPMERLGAGVAGVEDIKSHPFFTPVDWAELTR
B6: CEP85 (protein, UniProt Q8BMK0 1-761)
chain: MAMQEKYPNDRSHATSPGSNVIQKGSSLGTEWQTPVISETFRSRFSRCSSIADSGDTAIGTSCSDIAEDFCSSSGSPSFQPIKSHITIPTAHVMPSTLGASPAKPNSAPSGPSSAKLPLSGLTEGVGMTRNGDFGAVKRSPGLARDFMYLPSAAGENGSQQSWFPAVGHEREGEMRKFDVPSMESTLNQPAMLETLYSDPHYRAHFPNPRPDTNKDVYKVLPESKKAPGSGAVFERNGPHASSSGVLPLGLQPAPGLSKSLSSQVWQPSPDPWHPGEQSCELSTCRQQLELIRLQMEQMQLQNGAMCHHPAAFAPLLPTLEPAQWLSILNSNEHLLKEKELLIDKQRKHISQLEQKVRESELQVHSALLGRPAPFGDVCLLRLQELQRENTFLRAQFAQKTEALSKEKMELEKKLSASEVEIQLIRESLKVTLQKHSEEGKKQEERVKGRDKHINNLKKKCQKESEQNREKQQRIETLERYLADLPTLEDHQKQTEQLKDAELKNTELQERVAELETLLEDTQATCREKEVQLESLRQREADLSSARHSFQDKQSVEEANGENLRVDMESQQKECDSLRKMVERQQLKMEQLHSQVQSQKQELAQEEGINQALREEAQRRETALQQMRTAVKELSVQNQDLIEKNLTLQEHLRQAQPGSSSSPDSAQLACELHQELASCLQDLQAVCSIVTQRAQGHNPNLSLLLGIHSTQHPGTQLDLQKPDVIRRKLEEVQQLRHDIEDLRTSLSDRYAQDMGENCATQ
B7: CCDC14 (protein, UniProt Q8K2J4 1-934)
chain: MSPGGPRPSSRKRKLRGRDKGGPDISAVNSFFLKYSFPYAWALLRLREMVRSGSRPGQVISSGRQPGAKLPNGKKGTHVRKIAHFNVDSACPVQSDSESQTDTLQGLDGCASLLRDILKNEDSGSEMVYSENRCNSKPLEGRKNRSKKKGPEKHVPSVVRKEILSSENRKWISNEASTGSDTAQRWSLQDHYRMYSPIIYQALCEHVQTQMSLMNSLALKNGPNGIHAVCHTMSNSGSQATPHSGFGCSPSASVWPPQQPSCPLMVHSEVQTDADNQFESQSQATSVKYGDVPRDPFSVHPGVACGLPHADSPAVAKSRQLDLTSCILPQQRAPKEAELLKCFQTHTSLFPAHGKDALSDSQAYQSPSQLQPAFLATNEEKCAKEQFEEATNEGKHLSTHVQDAKIAKNVQQAENVSQTAEKIRLAKCLLGELKALMEEDSEVQRLVTEVEACVSGLSAVSGHPNVEVEIALALQPLRSENAQLRRQLRILNQRLREQEKTEKGPGNLELFSLQSLNMSLQNQLQESLKSQELLQSKNEELLKVIENQKEENKKFTTLFKDKEQTLLHNKQQFDIEMTRVKMELEEALANEKNLRFKLETAEKESQILGITLRQRDAEVARLRELTRTLQSSMAKLLSDLSMDTARCRMGNSLTKSLLNVYDQQLQQDPAPAQTSIMSYLNKLETNHSFIHSKLLNNEAAIEPDRLCESVLPPQRPPHSDAGTADGGSASGTVSAASVEDSDMDCETLTVIEDGCNVDSTVYIPFARNTSKKHSPLCKRLSPQPKLSVAAAQLVSGSAQTSKGESKPRAPAVCSSRNEAEDAPGDLSSTYDTEDVQLLRKIKEAIGKIPAAAEHAKEQATHHGPSAHPSPGVPVKGSIVPDSSFLNSDLMSDWSISSFSTFTSHDEQDFRNGLAALDANIARLQKSLKTGLLEK
B8: HAUS5 (protein, UniProt Q9D786 1-619)
chain: MELTQKERELSRWAAEEMEVPLAARPRESTLRRLCLSQGADIWAYIVQHVRSQRNIKKIQGNLLWHAYQDNPKIHRKLELEATVARLRAENQELDQSLELMDQESEAQDVAMTQTLQSLKDTQHRALLLQAQAGAVRRQQRGLQDPMQRLQNQLKHLQDMQRKAKVDVTFGPVVSAAPALEPEVLGDVRAACTLRTQFLQNLLTPRARGGSILSPCDDHVGTSYQQWLTSVETLLTNHPAGHVLAALEYLAAERESEIRSLCYGDGLKEEELSRPQAPESSNSSQVLPSTVHLIQEGWQAVGALVTQRSALLSERQVLTGRLQRLVEEVKRLLLGSSERKVLLLGLRHSGLLAELKALHAQSQELESAVGQRHLLLRELQAKRQRILQWRQLVEDRQEQIRLLIKGNSASKTRLSRGPEEVLALIDQKLVPTSEAVAPQSQELLRCLKEEAKHLPRVLLGPLLPYHVKGLKPLSRILPSIHQLHPTNPRASSLILLSHTLGLPVGKASELLLPRAASLQQDLLFLQDQLGLRRGNLCVKTSLPPGPSTQELLQMQVSQEKEQNENVGQTLKKLSNLLKQALEQIPELQGIVQDWWEQPSQAALPEEICQGLSLPQCQLR

Sequences of proteins named here, by UniProt entry; tags and fusion partners are left off. A change or cut given only in a name is not applied to a line headed by its entry.
UniProt Q7Z494: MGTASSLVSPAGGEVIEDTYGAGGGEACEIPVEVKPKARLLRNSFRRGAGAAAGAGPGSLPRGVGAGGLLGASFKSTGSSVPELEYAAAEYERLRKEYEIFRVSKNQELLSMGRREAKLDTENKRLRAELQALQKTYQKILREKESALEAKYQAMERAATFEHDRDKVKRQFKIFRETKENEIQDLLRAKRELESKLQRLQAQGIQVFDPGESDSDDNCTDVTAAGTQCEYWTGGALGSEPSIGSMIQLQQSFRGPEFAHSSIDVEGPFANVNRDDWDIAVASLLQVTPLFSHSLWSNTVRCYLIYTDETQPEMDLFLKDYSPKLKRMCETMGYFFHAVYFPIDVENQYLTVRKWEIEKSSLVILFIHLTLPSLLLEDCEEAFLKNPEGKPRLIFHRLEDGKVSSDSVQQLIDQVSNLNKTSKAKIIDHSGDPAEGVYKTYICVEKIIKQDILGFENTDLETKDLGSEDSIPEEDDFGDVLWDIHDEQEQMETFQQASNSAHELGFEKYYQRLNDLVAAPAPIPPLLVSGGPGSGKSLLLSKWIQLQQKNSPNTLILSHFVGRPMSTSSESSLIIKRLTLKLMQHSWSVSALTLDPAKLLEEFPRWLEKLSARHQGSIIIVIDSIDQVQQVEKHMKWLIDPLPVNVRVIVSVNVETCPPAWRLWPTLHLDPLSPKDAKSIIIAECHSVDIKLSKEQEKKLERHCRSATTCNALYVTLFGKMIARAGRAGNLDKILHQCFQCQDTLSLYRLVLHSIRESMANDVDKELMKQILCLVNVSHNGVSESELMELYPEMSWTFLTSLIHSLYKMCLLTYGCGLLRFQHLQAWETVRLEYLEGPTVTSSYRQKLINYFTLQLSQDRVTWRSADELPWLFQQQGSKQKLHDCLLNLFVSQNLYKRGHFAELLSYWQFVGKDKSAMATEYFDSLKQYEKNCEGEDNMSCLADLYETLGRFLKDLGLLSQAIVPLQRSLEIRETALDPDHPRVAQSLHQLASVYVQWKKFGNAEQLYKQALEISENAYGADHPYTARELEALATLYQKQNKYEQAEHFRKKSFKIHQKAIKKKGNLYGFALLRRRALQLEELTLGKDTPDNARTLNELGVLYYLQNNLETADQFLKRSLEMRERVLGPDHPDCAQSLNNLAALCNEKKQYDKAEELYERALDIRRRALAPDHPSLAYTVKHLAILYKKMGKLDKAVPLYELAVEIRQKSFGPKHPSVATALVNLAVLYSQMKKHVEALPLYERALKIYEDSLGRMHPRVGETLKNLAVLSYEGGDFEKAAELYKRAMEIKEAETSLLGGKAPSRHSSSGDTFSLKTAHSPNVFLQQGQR

molecular target: NPHP3-BioID2-RAD23B (aa185-409) (human) (UniProt Q7Z494); experiment: proximity labelling; NPHP3-BioID2-RAD23B (aa185-409) stably expressed in IMCD3 Flp-In cells, starvation medium 48 h, 10 uM biotin for the last 24 h; RIPA lysis, StrepTactin Superflow beads 3 h at 4°C, on-bead trypsin digestion, label-free MS; enrichment against the NPHP3-BioID2 control line; 6 replicates per cell line

binding, binds:
B1
B2
B3
B4
B5
B6
B7
B8

From PMC9908615
